Our source for the binding values is paper doi:10.1101/2024.05.26.595989.

By UniProt entry, the sequences of proteins in these tests, tags left out.
UniProt Q06518: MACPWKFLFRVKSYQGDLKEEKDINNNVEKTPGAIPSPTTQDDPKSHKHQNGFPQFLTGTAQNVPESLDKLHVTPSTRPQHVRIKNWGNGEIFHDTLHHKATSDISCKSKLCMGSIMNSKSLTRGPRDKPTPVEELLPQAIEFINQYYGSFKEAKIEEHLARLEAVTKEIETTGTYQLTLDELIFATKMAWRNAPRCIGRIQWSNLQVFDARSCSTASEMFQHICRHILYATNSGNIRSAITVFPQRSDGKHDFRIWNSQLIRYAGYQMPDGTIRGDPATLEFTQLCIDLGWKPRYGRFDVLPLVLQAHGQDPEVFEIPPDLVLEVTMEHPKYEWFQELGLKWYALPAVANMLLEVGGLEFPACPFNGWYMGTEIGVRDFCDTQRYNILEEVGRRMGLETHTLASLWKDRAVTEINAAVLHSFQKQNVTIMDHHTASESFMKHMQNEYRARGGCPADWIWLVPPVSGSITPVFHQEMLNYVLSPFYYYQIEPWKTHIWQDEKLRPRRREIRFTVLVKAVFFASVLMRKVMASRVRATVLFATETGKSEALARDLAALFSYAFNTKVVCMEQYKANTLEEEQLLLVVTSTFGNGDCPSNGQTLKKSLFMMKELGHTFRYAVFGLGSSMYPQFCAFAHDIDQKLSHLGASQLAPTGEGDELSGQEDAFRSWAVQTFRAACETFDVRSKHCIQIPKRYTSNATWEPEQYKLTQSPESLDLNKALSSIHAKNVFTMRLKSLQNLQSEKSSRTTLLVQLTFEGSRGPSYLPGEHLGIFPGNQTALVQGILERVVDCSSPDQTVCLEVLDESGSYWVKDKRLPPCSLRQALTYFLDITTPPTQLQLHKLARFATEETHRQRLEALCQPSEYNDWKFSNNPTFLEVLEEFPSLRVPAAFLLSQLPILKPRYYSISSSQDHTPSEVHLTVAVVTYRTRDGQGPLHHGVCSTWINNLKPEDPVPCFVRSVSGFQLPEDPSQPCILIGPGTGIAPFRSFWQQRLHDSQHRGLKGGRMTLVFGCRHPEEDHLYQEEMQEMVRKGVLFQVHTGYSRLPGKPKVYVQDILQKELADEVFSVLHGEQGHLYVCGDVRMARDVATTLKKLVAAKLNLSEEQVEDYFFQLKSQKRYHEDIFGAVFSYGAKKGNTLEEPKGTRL

Results are given in words; binding and its absence hold for the method and conditions named. Some entries that bind do so weakly or less than the wild type.

The target of the experiment is inducible nitric oxide synthase (iNOS), rat, endogenous in H-4-II-E hepatoma cells (rat (endogenous in H-4-II-E)) (UniProt Q06518). The experiment is described as follows: non-reducing SDS-PAGE with immunoblot. For orientation: In western blotting, separated proteins are transferred to a membrane and probed.

As to “inducible nitric oxide synthase (iNOS), rat, endogenous in H-4-II-E hepatoma cells (from UniProt Q06518 1-1147) (enzyme)”, the binding result is “binds”.
